The text below walks through data of paper PMC7326958.

The chains behind the UniProt entries cited, without tags or fusion partners.
UniProt Q96DH6: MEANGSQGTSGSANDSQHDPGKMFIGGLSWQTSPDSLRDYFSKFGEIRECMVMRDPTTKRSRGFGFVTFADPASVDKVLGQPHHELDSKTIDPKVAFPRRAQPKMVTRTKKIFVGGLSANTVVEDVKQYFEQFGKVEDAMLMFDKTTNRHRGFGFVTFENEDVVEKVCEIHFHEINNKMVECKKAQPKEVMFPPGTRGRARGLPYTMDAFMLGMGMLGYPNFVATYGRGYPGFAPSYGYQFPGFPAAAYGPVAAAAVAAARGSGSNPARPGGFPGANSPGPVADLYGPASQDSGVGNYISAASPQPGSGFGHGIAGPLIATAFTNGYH
UniProt Q03135: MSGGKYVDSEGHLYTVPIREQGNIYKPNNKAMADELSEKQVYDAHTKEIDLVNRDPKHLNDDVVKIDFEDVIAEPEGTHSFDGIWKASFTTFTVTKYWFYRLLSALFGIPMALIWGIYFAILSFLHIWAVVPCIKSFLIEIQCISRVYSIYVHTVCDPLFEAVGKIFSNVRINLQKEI

These are yes or no findings as the source states them, for the method shown. In cells and extracts the contact can be indirect. Some entries that bind do so weakly or less than the wild type.

Assay [1] addresses GST-MSI2 fusion protein (UniProt Q96DH6). The assay is described as follows: pull-down; GST-MSI2 purified from bacteria immobilized on GST beads, incubated with lysates of HEK293T cells transiently transfected with His-tagged CAV1, 2 h at 4 °C, washed five times, Western blot; only the target purified.
Assay [2] deals with Caveolin-1 (CAV1), endogenous (human (endogenous in ST8814)) (UniProt Q03135). The assay is described as follows: co-IP; endogenous proteins in ST8814 cells; IP with the MSI2 antibody or the CAV1 antibody, Western blot.
Assay [3] addresses Musashi-2 (MSI2), endogenous (human (endogenous in ST8814)) (UniProt Q96DH6). Described as above.

In the case of “His-tagged full-length CAV1 (from UniProt Q03135 1-178)”, in assay [1], the binding entry is reported as “binds”.
With “Musashi-2 (MSI2), endogenous (from UniProt Q96DH6 1-328)”, the binding entry in assay [2] is “binds”.
“Caveolin-1 (CAV1), endogenous (from UniProt Q03135 1-178)”: the binding entry in assay [3] is listed as “binds”.
